Our source for the binding values is publication PMC3157439.

By UniProt entry, the sequences of proteins in these tests, tags left out.
UniProt Q8CHK4: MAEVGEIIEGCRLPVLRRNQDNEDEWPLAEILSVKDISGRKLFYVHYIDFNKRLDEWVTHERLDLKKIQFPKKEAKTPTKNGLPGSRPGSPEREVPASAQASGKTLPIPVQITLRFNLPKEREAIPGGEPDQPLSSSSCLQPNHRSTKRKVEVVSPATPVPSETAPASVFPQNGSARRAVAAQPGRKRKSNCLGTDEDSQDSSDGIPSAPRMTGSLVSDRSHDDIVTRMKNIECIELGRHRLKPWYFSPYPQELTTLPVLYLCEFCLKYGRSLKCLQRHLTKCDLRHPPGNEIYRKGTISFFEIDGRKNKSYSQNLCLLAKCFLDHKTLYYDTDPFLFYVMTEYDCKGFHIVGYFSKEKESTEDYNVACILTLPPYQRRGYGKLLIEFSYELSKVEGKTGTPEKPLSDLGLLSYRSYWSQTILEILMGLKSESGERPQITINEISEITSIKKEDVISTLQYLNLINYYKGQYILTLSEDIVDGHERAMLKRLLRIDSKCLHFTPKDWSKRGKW

Results are given in words; binding and its absence hold for the method and conditions named. For some assays here: Binding seen in cells or lysates may run through a third protein. Some binding calls cover weakened binding; strength is not graded here.

For test [1], the target named is full-length myc-tagged GPR50 (mouse) (UniProt O88495). As to the kind of experiment: co-IP; HEK293 cells transfected with flagTip60 and/or mycGpr50 constructs; total cell lysates immunoprecipitated overnight at 4 °C with anti-myc antibody and protein G-Sepharose, blot with anti-flag.
For test [2], the target named is T1, cytoplasmic domain of mouse GPR50 (amino acids 304-592) (mouse) (UniProt O88495).
T1 sequence: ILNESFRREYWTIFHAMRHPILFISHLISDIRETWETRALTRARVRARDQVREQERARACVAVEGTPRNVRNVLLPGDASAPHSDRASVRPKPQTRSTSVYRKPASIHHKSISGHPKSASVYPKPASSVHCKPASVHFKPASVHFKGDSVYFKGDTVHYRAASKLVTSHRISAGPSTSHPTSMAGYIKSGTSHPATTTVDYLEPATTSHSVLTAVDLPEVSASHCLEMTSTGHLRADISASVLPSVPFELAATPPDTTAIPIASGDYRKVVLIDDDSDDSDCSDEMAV
As to the kind of experiment: two-hybrid; sequential transformation of defined constructs in yeast cells, growth assay on selective media.

On to “full-length flag-tagged TIP60 (from UniProt Q8CHK4 1-513)”, for which the binding entry in test [1] is recorded as “binds”.

For the substance “full length TIP60, two-hybrid fusion (from UniProt Q8CHK4 1-513)”, in test [2], the binding entry is listed as “binds”.
